From US11780893B2, “Kv1.3 blockers” (Zealand Pharma A/S, priority 2019, dated 2023)
Like-named read-outs stand apart in the source and are kept apart here. At least one compound was matched to its structure with a doubt left. Some results were stated once for a whole list of compounds, not compound by compound. Bridge positions count the residues as written; N and C are the ends. Square brackets hold non-standard residues; d marks the D form. Peptide text beside a SMILES is read from it. Aad = N[C@@H](CCCC(=O)O)C(=O)O; Nle = CCCC[C@H](N)C(=O)O

Protein sequences, listed by entry. Tags and fused reporters are not part of them.
UniProt P22001, whole entry: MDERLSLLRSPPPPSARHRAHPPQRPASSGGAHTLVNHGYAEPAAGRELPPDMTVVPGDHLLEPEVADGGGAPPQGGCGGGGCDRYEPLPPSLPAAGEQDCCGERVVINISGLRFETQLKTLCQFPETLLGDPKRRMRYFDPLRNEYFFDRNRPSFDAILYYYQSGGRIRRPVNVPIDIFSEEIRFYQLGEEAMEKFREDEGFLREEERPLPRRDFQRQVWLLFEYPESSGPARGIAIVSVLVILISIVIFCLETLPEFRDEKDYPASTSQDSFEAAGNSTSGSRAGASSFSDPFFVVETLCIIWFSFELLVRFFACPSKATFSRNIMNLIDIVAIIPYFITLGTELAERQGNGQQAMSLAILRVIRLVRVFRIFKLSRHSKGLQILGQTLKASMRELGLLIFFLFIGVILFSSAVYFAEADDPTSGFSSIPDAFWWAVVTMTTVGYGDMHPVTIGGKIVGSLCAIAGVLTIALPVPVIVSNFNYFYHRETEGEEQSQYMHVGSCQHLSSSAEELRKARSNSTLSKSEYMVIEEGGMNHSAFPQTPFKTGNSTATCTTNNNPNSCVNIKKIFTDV

Molecular target: T1, human Kv1.3 voltage-gated K+ channel (Homo sapiens, UniProt P22001)
T1 construct: host or cells: CHO-DUKX
Assay type: cell-based

Structure (SMILES) | IC50 [nM] | IC50 (inhibition of thallium flux, CHO-DUKX cells with human Kv1.3, read-out: IC50) [nM]
CCCC[C@H](NC(=O)[C@H](CC(=O)O)NC(=O)[C@H](CCCC)NC(=O)[C@@H](N)CO)C(=O)N[C@@H](CCCNC(=N)N)C(=O)N[C@H]1CSSC[C@@H]2NC(=O)[C@H](CCCCN)NC(=O)CNC(=O)[C@H](Cc3ccccc3)NC(=O)[C@H]([C@@H](C)CC)NC(=O)[C@H](CO)NC(=O)CNC(=O)[C@H]([C@@H](C)CC)NC(=O)[C@H](C)NC(=O)[C@H](CCCCN)NC(=O)[C@H](CC(C)C)NC(=O)[C@@H]3CSSC[C@@H](C(=O)N[C@@H](Cc4ccc(O)cc4)C(=O)N4CCC[C@H]4C(=O)N[C@@H](CCCNC(=N)N)C(N)=O)NC(=O)[C@H](CCCCN)NC(=O)[C@H](CSSC[C@H](NC(=O)[C@H](CCC(=O)O)NC(=O)[C@H](C(C)C)NC(=O)[C@H](CO)NC(=O)[C@H](C)NC(=O)[C@H](CO)NC1=O)C(=O)N[C@@H](CCCCN)C(=O)N[C@@H](CCCC(=O)O)C(=O)N[C@@H](CCCCN)C(=O)N3)NC(=O)[C@H](CCCCN)NC(=O)[C@H](CCCCN)NC(=O)[C@H](CC(N)=O)NC(=O)[C@H](CCSC)NC2=O [Compound 73] (H-S[Nle]D[Nle]RCSASVECK[Aad]KCLKAIGSIFGKCMNKKCKCYPR-NH2; disulfide 6-27, 12-32, 16-34) | ≤ 0.15 | –
CCCC[C@H](NC(=O)[C@H](CC(=O)O)NC(=O)[C@H](CCCC)NC(=O)[C@@H](N)CO)C(=O)N[C@@H](CCCNC(=N)N)C(=O)N[C@H]1CSSC[C@@H]2NC(=O)[C@H](CCCCN)NC(=O)CNC(=O)[C@H](Cc3ccccc3)NC(=O)[C@H]([C@@H](C)CC)NC(=O)[C@H](CO)NC(=O)CNC(=O)[C@H]([C@@H](C)CC)NC(=O)[C@H](C)NC(=O)[C@H](CCCCN)NC(=O)[C@H](CC(C)C)NC(=O)[C@@H]3CSSC[C@@H](C(=O)N[C@@H](Cc4ccc(O)cc4)C(=O)N4CCC[C@H]4C(=O)N[C@@H](CCCNC(=N)N)C(N)=O)NC(=O)[C@H](CCCNC(=N)N)NC(=O)[C@H](CSSC[C@H](NC(=O)[C@H](CCC(=O)O)NC(=O)[C@H](C(C)C)NC(=O)[C@H](CO)NC(=O)[C@H](C)NC(=O)[C@H](CO)NC1=O)C(=O)N[C@@H](CCCCN)C(=O)N[C@@H](CCC(N)=O)C(=O)N[C@@H](CCCCN)C(=O)N3)NC(=O)[C@H](CCCCN)NC(=O)[C@H](CCCCN)NC(=O)[C@H](CC(N)=O)NC(=O)[C@H](CCSC)NC2=O [Compound 75] | ≤ 0.15 | 0.1
CCCC[C@H](NC(=O)[C@H](CC(=O)O)NC(=O)[C@H](CCCC)NC(=O)[C@@H](N)CO)C(=O)N[C@@H](CCCNC(=N)N)C(=O)N[C@H]1CSSC[C@@H]2NC(=O)[C@H](CCCCN)NC(=O)CNC(=O)[C@H](Cc3ccccc3)NC(=O)[C@H]([C@@H](C)CC)NC(=O)[C@H](CO)NC(=O)CNC(=O)[C@H]([C@@H](C)CC)NC(=O)[C@H](C)NC(=O)CNC(=O)[C@H](CC(C)C)NC(=O)[C@@H]3CSSC[C@@H](C(=O)N[C@@H](Cc4ccc(O)cc4)C(=O)N4CCC[C@H]4C(=O)N[C@@H](CCCNC(=N)N)C(N)=O)NC(=O)[C@H](CCCCN)NC(=O)[C@H](CSSC[C@H](NC(=O)[C@H](CCC(=O)O)NC(=O)[C@H](C(C)C)NC(=O)[C@H](CO)NC(=O)[C@H](C)NC(=O)[C@H](CO)NC1=O)C(=O)N[C@@H](CCCCN)C(=O)N[C@@H](CCC(N)=O)C(=O)N[C@@H](CCCCN)C(=O)N3)NC(=O)[C@H](CCCCN)NC(=O)[C@H](CCCCN)NC(=O)[C@H](CC(N)=O)NC(=O)[C@H](CCSC)NC2=O [Compound 77] (H-S[Nle]D[Nle]RCSASVECKQKCLGAIGSIFGKCMNKKCKCYPR-NH2; disulfide 6-27, 12-32, 16-34) | ≤ 0.15 | –
